## Assay results

From PubChem BioAssay record AID1159506 (NCATS, 2015).

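Genome-wide siRNA knockdown in TC32 Ewing sarcoma cells, comparing luciferase light from an NR0B1-promoter reporter with a CMV-promoter reporter 48 hours after transfection. Each siRNA was applied at 20 nM. A z-score of the log NR0B1-over-CMV signal, less the median of siRNAs with the same seed; more negative means a stronger specific loss of the NR0B1 reporter.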

This is part of the screen; most of the strongest results are not listed here. Sequences are the guide (antisense) strand, without overhang.

{"strand": "UUUGUAGUUAACAAUCGGC", "target gene": "ALMS1", "seed-corrected z-score": "0.05997"}
{"strand": "UAGUACUUCAGGAAGUUUC", "target gene": "ZNF821", "seed-corrected z-score": "0.2725"}
{"strand": "AUUUGAAUGCUUGAUAUAC", "target gene": "SUCLG2", "seed-corrected z-score": "0.9613"}
{"strand": "UUGGUAUCAAAUCACUUCG", "target gene": "GINS1", "seed-corrected z-score": "-0.6835"}
{"strand": "UGUUGCAUAAACAGUGACG", "target gene": "FAM229B", "seed-corrected z-score": "-1.084"}
{"strand": "UACGUUCAUCUUCACACUC", "target gene": "THEMIS", "seed-corrected z-score": "-0.3208"}
{"strand": "UUUCAGGUGGUGUUCAUAC", "target gene": "TAF1D", "seed-corrected z-score": "-0.09426"}
{"strand": "UAAUCUGUUAGAGCCGUAU", "target gene": "DBI", "seed-corrected z-score": "-0.3208"}
{"strand": "UCAGGUAAGGGUGCUCACU", "target gene": "NOTCH3", "seed-corrected z-score": "0.0366"}
{"strand": "UGGUAUUCCAGAAACUUCC", "target gene": "WDFY4", "seed-corrected z-score": "0.1523"}
{"strand": "UGAGUACUCGGUGUGCAGC", "target gene": "STK40", "seed-corrected z-score": "-0.8854"}
{"strand": "AAUUGAAUGAACGAGAAGC", "target gene": "CCDC158", "seed-corrected z-score": "1.033"}
{"strand": "UCAUUAGGAAUGACGAUGC", "target gene": "ITGB6", "seed-corrected z-score": "0.345"}
{"strand": "UACUAGUCACUGGAAUUUC", "target gene": "ARFIP1", "seed-corrected z-score": "-0.571"}
{"strand": "UGAAAUAGAAGCUUCUCGG", "target gene": "DGKI", "seed-corrected z-score": "0.621"}
{"strand": "UGAGUGAAGAGACCCGUUG", "target gene": "MYPN", "seed-corrected z-score": "-0.2319"}
{"strand": "AACAUGAAGACUUUUAUCC", "target gene": "MLANA", "seed-corrected z-score": "0.7931"}
{"strand": "AAGGUUAGAACUCCCAUGG", "target gene": "ZNF192P1", "seed-corrected z-score": "0.165"}
{"strand": "UAGCGGUGCACAAUGGAUG", "target gene": "EFEMP2", "seed-corrected z-score": "-0.4955"}
{"strand": "UCUCGUUUCCUGUAGAUUC", "target gene": "KMT5A", "seed-corrected z-score": "1.561"}
{"strand": "AACCGUAACAUAAGCCUUG", "target gene": "A2ML1", "seed-corrected z-score": "0.1677"}
{"strand": "AAGCUUUCAACCUGGCCUC", "target gene": "SLC25A45", "seed-corrected z-score": "-0.3569"}
{"strand": "UUAAUUAUCACUCACAUAU", "target gene": "MT1F", "seed-corrected z-score": "0.1979"}
{"strand": "UAAAUGACUCCGAAUUUGA", "target gene": "RAP1GAP2", "seed-corrected z-score": "0.7159"}
{"strand": "UUCGGGCGCACAAUAACCU", "target gene": "C3orf35", "seed-corrected z-score": "0.1906"}
{"strand": "UGACAUUUUUGCGAAGCUC", "target gene": "PKP3", "seed-corrected z-score": "0.1447"}
{"strand": "ACCCUGUUGAGUACUCUUC", "target gene": "NTNG1", "seed-corrected z-score": "0.1492"}
{"strand": "AUCCUGUCUAUUAAACGUG", "target gene": "DRC3", "seed-corrected z-score": "0.1184"}

2 of the entries, repeated:

strand	target gene	seed-corrected z-score
UUCGGGCGCACAAUAACCU	C3orf35	0.1906
UGACAUUUUUGCGAAGCUC	PKP3	0.1447